Binding data for ten molecules are collected here from patent publication US20220119513A1.

Assay [1] addresses TGFβ1 (R&D Systems). As to the kind of experiment: SPR. (In general: SPR reads the build-up and loss of mass on a sensor chip optically.)
Assay [2] deals with TGFβ2 (R&D Systems). Kind of assay: SPR.
Assay [3] addresses TGFβ1 (R&D Systems). Kind of assay: SPR, TGFβ on chip.
In assay [4] the target is TGFβ2 (R&D Systems). As to the kind of experiment: SPR, TGFβ on chip.

Changes are numbered by the printed parent chain. These are yes or no findings as the source states them, for the method shown. For some assays here: A result given as binding can be weak or reduced; the word gives no strength.

B1: felHclb_heterochimera-1 (antibody, V domains shown)
VH: QVLLVQSGAEVRRPGASVKIFCKASGYIFITYYMHWLRQAPAQGFEWMGSIFPASGSTSYAQKFQGRLTLTADTSTDTAYMELSSLRSADTAVYYCARGDGNYALDAMDYWGHGTIVTVSS
VL: DIVMTQTPPSLSVSPRETASISCRASESVDSYGNSFMHWYLQKPGQSPQLLIYLASNLESGVSDRFSGSGSGTDFTLRISRVEANDTGVYYCQQNNEDPLTFGQ
B1: the binding entry with TGFβ1 (R&D Systems) [1] and in the assay with TGFβ2 (R&D Systems) [2] was “no binding” throughout.

B2: felHclb_heterochimera-11 (antibody, V domains shown)
VH: B1 VH
VL: DIVLTQTPASLAVSLGQRATISCRASESVDSYGNSFMHWYQQKSGQPPKLLIYLASNLESGVPARFSGSGSRTDFTLTIDPVEADDAATYYCQQNNEDPLTFGAGTK
Take B2: the binding result with TGFβ1 (R&D Systems) [1] and in the assay with TGFβ2 (R&D Systems) [2] was “no binding” throughout.

B3: felHclb_heterochimera-2 (antibody, V domains shown)
VH: B1 VH with R13T, L37V, A40S, F45L, D77N, V93M, H113Q, I116S
VL: B1 VL
For the molecule B3, the binding result with TGFβ1 (R&D Systems) [1] and with TGFβ2 (R&D Systems) [2] was “no binding” each time.

B4: felHclb_heterochimera-5 (antibody, V domains shown)
VH: B1 VH with R13K, I28T, A42E, F45L, S50R, D77N, V93M, H113Q, T115A, I116L
VL: B1 VL
Take B4: the binding entry in the assay with TGFβ1 (R&D Systems) [1] and in the assay with TGFβ2 (R&D Systems) [2] was “no binding” each time.

B5: felHclbH634x-KD2-2 (antibody, V domains shown)
VH: QVLLVQSGAEVRKPGASVKIFCKTSGYTFITYYVHWLRQAPAQGFEWMGQIFPASGSTNYNEMFEGRLTLTADTSTNTAYMELSSLRSADTAVYYCARGDGNYALDAMDYWGQGALVTVSS
VL: DVVMTQTPLSLPVTPGEPASISCRASESVDSYGNSFMHWYLQKPGQSPRRLIYLASNLESGVPDRFSGSGSGTDFTLRISRVEADDVGVYYCQQNNEDPLTFGAGT
For B5, the binding result with TGFβ1 (R&D Systems) [1] and with TGFβ2 (R&D Systems) [2] was “no binding” throughout.

B6: felHclbH618s-KD2-2 (antibody, V domains shown)
VH: B1 VH with R13K, I28T, A42E, F45L, S50R, D77N, V93M, H113Q, T115A, I116L
VL: B5 VL
As for B6, the binding entry with TGFβ1 (R&D Systems) [1] and with TGFβ2 (R&D Systems) [2] was “no binding” throughout.

B7: felHclb_heterochimera-4 (antibody, V domains shown)
VH: B5 VH with K13T, T24A, T28I, V34M, L37V, A40S, F45L, V93M, A115T, L116S
VL: B1 VL
In the case of B7, the binding entry with TGFβ1 (R&D Systems) [1] and with TGFβ2 (R&D Systems) [2] was “no binding” throughout.

B8: felHclbH618x-KD2-2 (antibody, V domains shown)
VH: B5 VH with T24A, V34M, A42E, F45L, V93M
VL: B5 VL
For B8, the binding entry with TGFβ1 (R&D Systems) [1] and with TGFβ2 (R&D Systems) [2] was “no binding” in each case.

B9: 04H09 (mouse) (antibody, V domains shown)
VH: QVQLQQSGAELVKPGASVKISCKASGYAFSSSWMNWVKQRPGKGLEWIGQIYPGDGDTNYNGKFKGKATLTADKSSSTAYMQLSSLTSEDSAVYFCARHYDGSTDYWGQGTTLTVSS
VL: DIQMTQSPASLSVSVGETVTITCRASENIYSNLAWYQQKQGKSPQLLVYAATNLADGVPSRFSGSGSGTQYSLKINSLQSEDFGSYYCQHFWGTPYTFGGGTKLEIK
Consider B9, for which the binding entry with TGFβ1 (R&D Systems) [3] and with TGFβ2 (R&D Systems) [4] was “binds” each time.

B10: chi04H09 (mouse-dog) (antibody, V domains shown)
VH: B9 VH
VL: DIQMTQSPASLSVSVGETVTITCRASENIYSNLAWYQQKQGKSPQLLVYAATNLADGVPSRFSGSGSGTQYSLKINSLQSEDFGSYYCQHFWGTPYTFGGGTKLEIKR
B10: the binding result with TGFβ1 (R&D Systems) [3] and with TGFβ2 (R&D Systems) [4] was “binds” throughout.
